Data set [1] can be described thus: Pharmacokinetics in dogs (IV and PO). The procedure: Using mice, rats, dogs, and monkeys as test animals, the compounds of the present disclosure were studied after intravenous bolus injection and oral administration. Plasma samples were collected at specific time points, and the concentrations of the compounds in plasma were detected by LC-MS/MS. PK parameters were calculated to reflect the pharmacokinetic behavior of the compounds of the present disclosure in mouse plasma in vivo.
Beagle dogs, male, Beijing Marshall Biotechnology Co.,Ltd.
Administration information for dog: The IV administration dose was 0.5 mg/kg, with an administration volume of 0.5 mL/kg; the IV administration dose was 1 mg/kg, with an administration volume of 0.5 mL/kg; the PO administration dose was 1 mg/kg, with an administration volume of 2 mL/kg; and the vehicle was 10 vol% DMSO/20 vol% Solutol/70 vol% Saline.
After administration to mice, rats, dogs, and monkeys, blood was collected from the vein at 0.0833 (IV), 0.25, 0.5, 1, 2, 4, 8, and 24 hours, with volumes of 0.025, 0.2, 0.5, and 0.6 mL, respectively, placed into EDTA-K2 tubes, and centrifuged at 4°C and 2000 g for 10 min to separate plasma, which was stored at -80°C.
Dog plasma sample processing: • 1) 50 µL of plasma sample was added to 200 µL of acetonitrile for precipitation, vortexed to mix, and then centrifuged for 15 minutes. • 2) The treated supernatant was diluted with water, and the concentration of the test compound was analyzed by LC/MS/MS.
Herein, Cmax represents the maximum plasma concentration; CL represents clearance; Vss represents the volume of distribution at steady state; T1/2 represents the terminal elimination half-life; MRTInf represents the mean residence time; AUC represents the area under the plasma concentration-time curve; and F represents bioavailability. Table 6 Pharmacokinetic parameters of some compounds of the present disclosure after intravenous injection and oral administration in balb/c nude mice

Data set [2] in a line: Plasma protein binding rate (equilibrium dialysis), mouse. The following applies: 5 µM, 6 hours dialysis. The procedure: (§1) The purpose of this test was to evaluate the protein binding rate of the test drug in plasma of human, monkey, dog, rat and mouse using the equilibrium dialysis method.
(§2) Plasma (EDTA-K2 anticoagulated) was stored in a -80°C freezer. Stop solution, acetonitrile (containing 100 nM alprazolam, 200 nM caffeine, and 100 nM tolbutamide as internal standards).
(§3) The test article and the control compound ketoconazole were prepared as high-concentration DMSO stock solutions and diluted to 1 mM working solution, with a final test concentration of 5 µM.
(§4) NaH2PO4 (12.0 g) and NaCl (8.77 g) were weighed and dissolved in 1 L of water to prepare an alkaline solution. Na2HPO4 (14.2 g) and NaCl (8.77 g) were weighed and dissolved in 1 L of water to prepare an acidic solution. The alkaline solution and the acidic solution were titrated to pH 7.4.
(§5) The temperatures of the water bath and incubator were pre-adjusted to 37°C. The plasma was removed from -80°C, rapidly thawed in a 37°C water bath, and centrifuged at 2000 g for 5 minutes at room temperature. The clot was removed, and the supernatant was transferred to a new centrifuge tube. The pH of the plasma was tested and recorded. (Note: a. Only plasma with a pH range of 7.2-7.8 was used. b. Only plasma that had been thawed no more than twice after receipt was used.)
(§6) The equilibrium dialysis membrane was soaked in pure water for 60 minutes, then in 20% ethanol for 20 minutes, and finally in dialysis buffer for 20 minutes. The soaked dialysis membrane was then spread flat on a clean HTDialysis clamping device, and the dialysis device was assembled according to the product manual.
(§7) 3 µL of the working solution of the test drug and the control drug was taken and added to 597 µL of pre-incubated plasma, and mixed thoroughly. The final organic solvent content in the incubation system was 0.5%. […]
(§8) All data calculations were performed using Microsoft Excel software. The concentrations of the drug in free samples and plasma samples were determined. […]
(In equilibrium dialysis only unbound substance equilibrates across the membrane.)

Data set [3] is described as follows: Plasma protein binding rate (equilibrium dialysis), rat. The following applies: 5 µM, 6 hours dialysis. The procedure: as §1, §2, §3, §4, §5, §6, §7, §8
Data set [4] in a line: Plasma protein binding rate (equilibrium dialysis), human. The settings on record: 5 µM, 6 hours dialysis. The procedure:
as §1, §2, §3, §4, §5, §6, §7, §8

Structures were worked out from names or drawings and are uncertain.

Consider two molecules from patent EP4843985A1, “TRIAZOLOPYRIMIDINE DERIVATIVE, PREPARATION METHOD THEREFOR AND USE THEREOF” (dated 2026).

The term AUC denotes the area under the concentration-time curve, a measure of exposure. Lower therefore signals less exposure. In general, Cmax refers to the highest concentration seen after dosing.

In the case of `[2H]C1([2H])CCC(c2nc3n4c(c(N5CCN(C(=O)c6ncnc(C)c6O)[C@H]6CC[C@@H]65)c(=O)n3n2)[C@H](C)C[C@@H]4C(=O)Nc2scc(C(F)(F)F)c2C)=CCO1`, in data set [1] (IV, 0.5 mg/kg), the AUC turned out to be 1.345 µM·h, the CL amounted to 11 mL/day/kg and the T1/2 is 2.89 h. For the same molecule, in data set [1] (PO, 1 mg/kg), the area under the curve (AUC) amounted to 4.199 µM·h, the Cmax was found to be 705 nM, the F is on record as 111% and the T1/2 is 3.72 h. Further, in data set [2], the Bound percentage turned out to be 91.64, the Free percentage is reported as 8.36 and the Recovery rate came to 95.4%. In addition, in data set [3], the Bound percentage was 87.87, the Free percentage amounted to 12.13 and the Recovery rate came to 93.6%. In data set [4], this molecule came in with a Bound percentage of 97.47, a Free percentage of 2.53 and a Recovery rate of 94.6%.

As to `[2H]C1([2H])CCC(c2nc3n4c(c(N5CCN(C(=O)c6ncnc(C)c6O)[C@H]6CC[C@@H]65)c(=O)n3n2)[C@H](C)C[C@@H]4C(=O)Nc2ccc(C(F)(F)F)cc2Cl)=CCO1`, in data set [1] (IV, 0.5 mg/kg), the AUC stood at 1.475 µM·h, the Cmax was 0.34 nM and the T1/2 is 6.49 h. In data set [1] (PO, 1 mg/kg), this molecule came in with an AUC of 3.097 µM·h, a Cmax of 421 nM, an F of 107% and a T1/2 of 7.61 h.
